Some of these results come from one statement about several compounds together. At least one structure is not confirmed: it was looked up by name or label, or the drawing left a doubt.
Legend:
[1] = target: T1, α1β2γ2 GABA receptors (α1β2γ2-CHO-TRex stable cell strain) (Homo sapiens, UniProt P14867+P47870); test: Whole-cell patch clamp, intrasynaptic functional activity (positive allosteric regulation of GABA-induced current); format: cell-based
T1 construct: expressed in transfected cells
Description: (§1) The α4β3δ-HEK-FlpIn-TRex stable cell strain was cultured in DMEM+10% FBS complete culture medium, with the selective antibiotics being 10 μg/mL Blasticidin, 100 µg/mL Zeocin, 100 µg/mL Hygromycin, and 0.2 μg/mL Puromycin. The α1β2γ2-CHO-TRex stable cell strain was cultured in DMEM/F12+10% FBS complete culture medium, with the selective antibiotics being 10 μg/mL Blasticidin, 100 μg/mL Zeocin, 300 μg/mL Hygromycin, and […] Puromycin.
(§2) The day before the patch clamp experiment, cells were seeded onto 12 mm polylysine-coated coverslips and then cultured in 35 mm culture dishes, and tetracycline ([…]) was added to induce the expression of GABA receptors. The extracellular fluid had the following composition (in mM): 140 NaCl, 3 KCl, 1.5 MgCl2, 2 CaCl2, 10 HEPES, and 10 Glucose. After thorough mixing, NaOH was added to adjust the pH to 7.4, and sucrose was added to adjust the osmotic pressure to 300-320 mOsm. The fluid was stored at 4° C. The electrode internal solution had the following composition (in mM): 145 KCl, 1 MgCl2, 5 EGTA, 10 HEPES, and 5 MgATP. After thorough mixing, KOH was added to adjust the pH to 7.3, and sucrose was added to adjust the osmotic pressure to 290-300 mOsm. The solution was filtered through a […] before use.
(§3) Whole-cell patch clamp recording was mainly employed in this experiment. The membrane potential was clamped at −60 mV, and receptors were activated using GABA at an EC10-20 concentration ([…]). The test compounds were dissolved in 0.1% DMSO, and perfusion was performed for 30 s prior to GABA stimulation. Finally, the positive allosteric regulating effects of the test compounds on α1β2γ2 or α4β3δ were determined.
(§4) The experimental result for each concentration was expressed as a fold increase in the GABA-induced current caused by the compound. […] At least 5 concentrations are tested to obtain a complete EC50 curve and EC50 values. All experiments were repeated on no less than 3 cells, and data processing was completed using GraphPad prism software. The dose-response curves were fitted using the Hill equation, and the half-maximal activating concentration EC50 and Emax were finally obtained.

The chains behind the UniProt entries cited, without tags or fusion partners. Where a name states a change or a piece, a line headed by the entry shows the natural chain unless it says otherwise. Residues count along the entry.
UniProt P14867, 28-456: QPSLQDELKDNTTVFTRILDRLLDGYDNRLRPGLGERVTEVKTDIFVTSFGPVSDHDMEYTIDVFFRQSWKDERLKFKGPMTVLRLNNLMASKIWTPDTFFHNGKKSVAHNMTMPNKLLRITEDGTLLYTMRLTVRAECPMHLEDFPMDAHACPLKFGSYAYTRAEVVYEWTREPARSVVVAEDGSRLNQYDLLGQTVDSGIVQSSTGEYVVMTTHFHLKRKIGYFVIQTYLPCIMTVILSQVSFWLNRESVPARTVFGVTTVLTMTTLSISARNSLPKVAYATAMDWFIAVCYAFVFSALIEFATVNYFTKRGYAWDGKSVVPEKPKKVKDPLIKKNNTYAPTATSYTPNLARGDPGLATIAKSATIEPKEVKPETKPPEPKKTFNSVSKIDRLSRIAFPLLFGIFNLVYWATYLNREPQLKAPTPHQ
UniProt P47870, 25-512 limits assumed: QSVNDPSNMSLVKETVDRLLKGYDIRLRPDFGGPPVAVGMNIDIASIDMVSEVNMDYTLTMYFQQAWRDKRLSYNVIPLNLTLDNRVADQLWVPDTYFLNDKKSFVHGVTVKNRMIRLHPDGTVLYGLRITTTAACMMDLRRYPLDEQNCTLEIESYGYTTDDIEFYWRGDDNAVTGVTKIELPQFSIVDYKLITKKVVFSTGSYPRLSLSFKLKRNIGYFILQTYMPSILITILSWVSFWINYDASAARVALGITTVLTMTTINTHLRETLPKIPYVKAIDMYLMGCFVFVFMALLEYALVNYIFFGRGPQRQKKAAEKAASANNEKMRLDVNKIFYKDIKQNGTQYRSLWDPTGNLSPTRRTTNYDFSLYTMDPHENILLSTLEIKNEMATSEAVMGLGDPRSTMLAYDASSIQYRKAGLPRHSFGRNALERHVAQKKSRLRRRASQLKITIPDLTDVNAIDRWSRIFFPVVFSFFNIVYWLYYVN
UniProt P28472, 26-473: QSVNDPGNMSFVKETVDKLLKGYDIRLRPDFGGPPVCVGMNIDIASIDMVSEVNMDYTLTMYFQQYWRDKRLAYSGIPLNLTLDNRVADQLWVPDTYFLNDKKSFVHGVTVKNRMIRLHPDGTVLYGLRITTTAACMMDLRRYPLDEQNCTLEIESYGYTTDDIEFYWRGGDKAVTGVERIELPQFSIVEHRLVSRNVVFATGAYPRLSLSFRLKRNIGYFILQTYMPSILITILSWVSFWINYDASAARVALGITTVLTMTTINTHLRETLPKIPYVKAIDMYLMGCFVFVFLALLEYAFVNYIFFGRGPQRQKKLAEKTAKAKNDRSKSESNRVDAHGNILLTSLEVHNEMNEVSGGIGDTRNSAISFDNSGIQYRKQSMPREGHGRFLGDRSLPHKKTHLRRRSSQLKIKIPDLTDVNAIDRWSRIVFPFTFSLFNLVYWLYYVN
UniProt P48169, 36-554: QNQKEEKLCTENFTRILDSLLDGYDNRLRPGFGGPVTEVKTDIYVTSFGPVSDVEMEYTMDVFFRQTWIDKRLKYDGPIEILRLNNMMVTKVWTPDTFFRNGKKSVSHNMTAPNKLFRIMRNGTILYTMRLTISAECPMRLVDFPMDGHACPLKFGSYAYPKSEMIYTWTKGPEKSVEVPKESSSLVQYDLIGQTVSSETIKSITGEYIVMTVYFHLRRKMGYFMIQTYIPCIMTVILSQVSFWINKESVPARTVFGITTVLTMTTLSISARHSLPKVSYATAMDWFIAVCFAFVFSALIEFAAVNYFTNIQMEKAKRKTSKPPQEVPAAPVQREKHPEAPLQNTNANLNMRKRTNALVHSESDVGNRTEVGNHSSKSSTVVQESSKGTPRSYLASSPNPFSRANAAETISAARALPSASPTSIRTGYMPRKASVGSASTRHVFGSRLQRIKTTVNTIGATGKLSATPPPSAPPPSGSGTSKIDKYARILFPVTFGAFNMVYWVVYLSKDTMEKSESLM

[2] = target: T2, α4β3δ GABA receptors (α4β3δ-HEK-FlpIn-TRex stable cell strain) (Homo sapiens, UniProt P28472+P48169); test: Whole-cell patch clamp, extrasynaptic functional activity (positive allosteric regulation of GABA-induced current); format: cell-based
T2 construct: expressed in transfected cells
Description: as §1, §2, §3, §4

Compound | intrasynaptic functional activity (in words) [1] | extrasynaptic functional activity (in words) [2]
C[C@@]1(O)CC[C@H]2[C@H](CC[C@@H]3[C@@H]2CC[C@]2(C)[C@@H](C(=O)Cn4cnn(-c5cccc(F)c5)c4=O)CC[C@@H]32)C1 [Compound 1] | relatively good | relatively good
C[C@@]1(O)CC[C@H]2[C@H](CC[C@@H]3[C@@H]2CC[C@]2(C)[C@@H](C(=O)Cn4cnn(-c5cccnc5)c4=O)CC[C@@H]32)C1 [Compound 2] | relatively good | relatively good
C[C@@]1(O)CC[C@H]2[C@H](CC[C@@H]3[C@@H]2CC[C@]2(C)[C@@H](C(=O)Cn4cnn(-c5ccccc5)c4=O)CC[C@@H]32)C1 [Compound 3] | relatively good | relatively good
C[C@@]1(O)CC[C@H]2[C@H](CC[C@@H]3[C@@H]2CC[C@]2(C)[C@@H](C(=O)Cn4cnn(-c5ccc(F)cc5)c4=O)CC[C@@H]32)C1 [Compound 4] | relatively good | relatively good
COc1cccc(-n2ncn(CC(=O)[C@H]3CC[C@H]4[C@@H]5CC[C@@H]6C[C@](C)(O)CC[C@@H]6[C@H]5CC[C@]34C)c2=O)c1 [Compound 5] | relatively good | relatively good
Cn1ncn(CC(=O)[C@H]2CC[C@H]3[C@@H]4CC[C@@H]5C[C@](C)(O)CC[C@@H]5[C@H]4CC[C@]23C)c1=O [Compound 6] | relatively good | relatively good
CCn1ncn(CC(=O)[C@H]2CC[C@H]3[C@@H]4CC[C@@H]5C[C@](C)(O)CC[C@@H]5[C@H]4CC[C@]23C)c1=O [Compound 7] | relatively good | relatively good
C[C@@]1(O)CC[C@H]2[C@H](CC[C@@H]3[C@@H]2CC[C@]2(C)[C@@H](C(=O)Cn4ncn(-c5ccc(F)cc5)c4=O)CC[C@@H]32)C1 [Compound 9] | relatively good | relatively good
C[C@@]1(O)CC[C@H]2[C@H](CC[C@@H]3[C@@H]2CC[C@]2(C)[C@@H](C(=O)Cn4cnn(CC5CC5)c4=O)CC[C@@H]32)C1 [Compound 10] | relatively good | relatively good
C[C@@]1(O)CC[C@H]2[C@H](CC[C@@H]3[C@@H]2CC[C@]2(C)[C@@H](C(=O)Cn4ccn(-c5cccc(F)c5)c4=O)CC[C@@H]32)C1 [Compound 11] | relatively good | relatively good
C[C@@]1(O)CC[C@H]2[C@H](CC[C@@H]3[C@@H]2CC[C@]2(C)[C@@H](C(=O)Cn4c(=O)n(-c5ccccc5)c5ccccc54)CC[C@@H]32)C1 [Compound 13] | relatively good | relatively good
C[C@@]1(O)CC[C@H]2[C@H](CC[C@@H]3[C@@H]2CC[C@]2(C)[C@@H](C(=O)Cn4c(=O)n(-c5ccccc5)c5ccccc54)CC[C@@H]32)C1 [Compound 14] | relatively good | relatively good
C[C@@]1(O)CC[C@H]2[C@H](CC[C@@H]3[C@@H]2CC[C@]2(C)[C@@H](C(=O)Cn4cnn(-c5ccc6c(c5)OCO6)c4=O)CC[C@@H]32)C1 [Compound 15] | relatively good | relatively good
C[C@@]1(O)CC[C@H]2[C@H](CC[C@@H]3[C@@H]2CC[C@]2(C)[C@@H](C(=O)Cn4cnn(-c5cccc(OC(F)(F)F)c5)c4=O)CC[C@@H]32)C1 [Compound 16] | relatively good | relatively good
COc1ccc(-n2ncn(CC(=O)[C@H]3CC[C@H]4[C@@H]5CC[C@@H]6C[C@](C)(O)CC[C@@H]6[C@H]5CC[C@]34C)c2=O)cn1 [Compound 17] | relatively good | relatively good
C[C@@]1(O)CC[C@H]2[C@H](CC[C@@H]3[C@@H]2CC[C@]2(C)[C@@H](C(=O)Cn4cnn(-c5ccccc5F)c4=O)CC[C@@H]32)C1 [Compound 18] | relatively good | relatively good
C[C@@]1(O)CC[C@H]2[C@H](CC[C@@H]3[C@@H]2CC[C@]2(C)[C@@H](C(=O)Cn4cnn(-c5cccc(C(N)=O)c5)c4=O)CC[C@@H]32)C1 [Compound 19] | relatively good | relatively good
C[C@@]1(O)CC[C@H]2[C@H](CC[C@@H]3[C@@H]2CC[C@]2(C)[C@@H](C(=O)Cn4cnn(-c5cccc(F)n5)c4=O)CC[C@@H]32)C1 [Compound 20] | relatively good | relatively good
C[C@@]1(O)CC[C@H]2[C@H](CC[C@@H]3[C@@H]2CC[C@]2(C)[C@@H](C(=O)Cn4cnn(-c5ccnc(F)c5)c4=O)CC[C@@H]32)C1 [Compound 21] | relatively good | relatively good
C[C@@]1(O)CC[C@H]2[C@H](CC[C@@H]3[C@@H]2CC[C@]2(C)[C@@H](C(=O)Cn4cnn(-c5cccc(N)c5)c4=O)CC[C@@H]32)C1 [Compound 22] | relatively good | relatively good
C[C@@]1(O)CC[C@H]2[C@H](CC[C@@H]3[C@@H]2CC[C@]2(C)[C@@H](C(=O)Cn4cnn(-c5cncc(F)c5)c4=O)CC[C@@H]32)C1 [Compound 23] | relatively good | relatively good
C[C@@]1(O)CC[C@H]2[C@H](CC[C@@H]3[C@@H]2CC[C@]2(C)[C@@H](C(=O)Cn4cnn(-c5cc(F)ccc5F)c4=O)CC[C@@H]32)C1 [Compound 24] | relatively good | relatively good
C[C@@]1(O)CC[C@H]2[C@H](CC[C@@H]3[C@@H]2CC[C@]2(C)[C@@H](C(=O)Cn4cnn(-c5ccc(F)cc5F)c4=O)CC[C@@H]32)C1 [Compound 25] | relatively good | relatively good
C[C@@]1(O)CC[C@H]2[C@H](CC[C@@H]3[C@@H]2CC[C@]2(C)[C@@H](C(=O)Cn4cnn(-c5cc(Cl)ccn5)c4=O)CC[C@@H]32)C1 [Compound 26] | relatively good | relatively good
C[C@@]1(O)CC[C@H]2[C@H](CC[C@@H]3[C@@H]2CC[C@]2(C)[C@@H](C(=O)Cn4cnn(-c5cccc(F)c5F)c4=O)CC[C@@H]32)C1 [Compound 27] | relatively good | relatively good
C[C@@]1(O)CC[C@H]2[C@H](CC[C@@H]3[C@@H]2CC[C@]2(C)[C@@H](C(=O)Cn4cnn(-c5cc(F)cc(F)c5)c4=O)CC[C@@H]32)C1 [Compound 28] | relatively good | relatively good
